Source: patent US20030186863A1
These are yes or no findings as the source states them, for the method shown. Some entries that bind do so weakly or less than the wild type.

Chains of the proteins cited; added tags and fusions are not shown. Residues count along the entry.
UniProt P62993, residues 1-58: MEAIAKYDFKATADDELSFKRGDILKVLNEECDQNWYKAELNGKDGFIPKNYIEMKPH

Biological target: GST-Grb2 N-terminal SH3 (Grb2 N, aa 1-58) (UniProt P62993)
Test: phage panning on GST-SH3, anti-phage ELISA

Binder	binding
SLWDPLPPIPQSKTSV	binds
YYQRPLPPLPLSHFES	binds
KWDLDLPPEPMSLGNY	binds

The remaining lines, values ahead:

binding	Binder
binds	RFDYNLPDVPLSLGTA
binds	YYRKPLPNLPRGQTDD
binds	RWDQVLPELPTSKGQI
binds	SYYDPLPKLPDPGDLG
binds	YFDKPLPESPGALMSL
binds	KWDSLLPALPPAFTVE
binds	DPYDALPETPSMKASQ
binds	TKKPNAPLPPLPAYMG
binds	RWGAPLPPLPEYSWST
binds	YWDMPLPRLPGEEPSL
binds	YFSRALPGLPERQEAH
binds	KLYYPLPPVPFKDTKH
binds	RFDFPLPTHPNLQKAH
binds	RLDSPLPALPPTVMQN

Biological target: GST-Nck middle SH3 (Nck M, aa 101-166) (UniProt P16333)
Test: phage panning on GST-SH3, anti-phage ELISA

binding	Binder
binds	SSISDYSRPPPPVRTLSLSR (peptide, not shown: large carriers; small tags and cut ends) [PXXP.NCK.T4.PP]
binds	SSLGVGWKPLPPMRTASLSR [PXXP.NCK.Q1/4.PP]
binds	SSIGEDTPPSPPTRRASLSR (peptide, not shown: large carriers) [PXXP.NCK.R4.PP]
binds	SSVGFADRPRPPLRVESLSR (peptide, not shown: large carriers) [PXXP.NCK.Q2/3.PP.INC]
binds	SSSFTLAAPTPPTRSLSLSR (peptide, not shown: large carriers) [PXXP.NCK.S3.PP]
binds	SSPYTGDVPIPPLRGASLSR (peptide, not shown: large carriers) [PXXP.NCK.R2.PP]
binds	SSPPYELPPRPPNRTVSLSR (peptide, not shown: large carriers; small tags and cut ends) [PXXP.NCK.T1.PP]
binds	SRSLSEVSPKPPIRSVSLSR (peptide, not shown: large carriers) [PXXP.NCK.S1/4.PP]
binds	SRVVDGLAPPPPVRLSSLSR (peptide, not shown: large carriers; small tags and cut ends) [PXXP.NCK.T2.PP]
binds	SSLMGSWPPVPPLRSDSLSR (peptide, not shown: large carriers) [PXXP.NCK.R3.PP]
binds	SSVSEGYSPPLPPRSTSLSR (peptide, not shown: large carriers) [PXXP.NCK.S2.PP.INC]
